Results from PMC6677831, “X-ray Crystallographic Structure and Oligomerization of Gloeobacter Rhodopsin” (Scientific Reports, 2019).
No constants are given. Whether binding was seen depends on the method and setting.

Assays:
[1] = target: Gloeobacter rhodopsin (Gloeobacter violaceus PCC 7421) (UniProt Q7NP59); experiment: SEC; Superdex 200 10/300 GL; 20 mM sodium citrate pH 3.0, 300 mM NaCl, 0.04% DDM; both purified
[2] = target: Gloeobacter rhodopsin (Gloeobacter violaceus PCC 7421) (UniProt Q7NP59); experiment: negative-stain electron microscopy; sample from the SEC peak at pH 3.0, around 0.05 mg/mL, carbon coated grids, 2% uranyl acetate; both purified

B1: Gloeobacter rhodopsin (natural protein, Gloeobacter violaceus PCC 7421)
chain: MLMTVFSSAPELALLGSTFAQVDPSNLSVSDSLTYGQFNLVYNAFSFAIAAMFASALFFFSAQALVGQRYRLALLVSAIVVSIAGYHYFRIFNSWDAAYVLENGVYSLTSEKFNDAYRYVDWLLTVPLLLVETVAVLTLPAKEARPLLIKLTVASVLMIATGYPGEISDDITTRIIWGTVSTIPFAYILYVLWVELSRSLVRQPAAVQTLVRNMRWLLLLSWGVYPIAYLLPMLGVSGTSAAVGVQVGYTIADVLAKPVFGLLVFAIALVKTKADQESSEPHAAIGAAANKSGGSLIS
modifications: all-trans-retinal covalently bound to Lys257 via a protonated Schiff base
notes: Gloeobacter rhodopsin (GR), light-driven proton pump of Gloeobacter violaceus PCC 7421; 33 kDa; Membrane protein in detergent micelles (0.04% DDM) in the oligomerisation experiments; also called GR; wild-type GR; source: E. coli C43(DE3), purified (TALON Co2+ column, Superdex 200) in OG or DDM
[1]
  binding: no binding (condition: at pH 3.0)
[2]
  binding: no binding (condition: at pH 3.0)
